Consider one molecule from article doi:10.1101/102442.

Results are given in words; binding and its absence hold for the method and conditions named. Binding seen in cells or lysates may run through a third protein. Binding calls can cover weak binding; strength is not graded here. Sequences can lack the tags named with a protein.

The target of this assay is mCherry-tagged mL1-ORF1p (mouse). The experiment in a line: co-IP.

B1: TEX19.1-YFP (HEK293 / HEK293T cells) (protein, UniProt Q99MV2 1-351)
chain: MCPPVSVRHGARGMSCLYEAWLYHLVHGEQTKICFACFKAAFLLNKLYLEMGDWQEEEEEEEEEDADLLEYLSESESESEQEPGPEQDAWRGLGSLYVPQSVSEGSGVLLPTPVWTQGILFSIFVPTELFPQEAVPLDLGPEDAEWTQALPWRLDGLFPCSHQLIPPLTWWDIFDVMPSPGQPVLLELRCHWPLDQTVAQSWLQDQKFVLLLDSVQSRCHLLSMRVRWVVRTQVQHWQVLLDPGEMWVAHFRKEVGQHGLYHQSLNPWRLSILTASELGMELLPATCYLWNKGFWVGSFLPWHINMPETWSWEPGERLFITDATICGTDYHLAQSFLDSHPTPHPLLTLTP
As for B1, the binding entry was “binds weakly”.
